The list shows a part of the results. The main result of the screen is listed elsewhere. These columns were measured beside it and carry no call. For some of these results: Most of these compounds were active or inconclusive in the main read-out, so they are no random draw.
Tests used:
PubChem AID 1586 = settings: yeast two-hybrid polyglutamine protein interaction, reporter readout; measured here: averaged growth delta OD
[1] = selective SMN2 exon splicing luciferase activators – cell-based, SMN2/SMN1 luciferase reporters (AID 1598); settings: SMN2 vs SMN1 luciferase splicing reporter cells, at 10 µM; SMN1 luciferase ratio: measured here: SMN1 luciferase reporter average; SMN2 luciferase ratio: measured here: SMN2 luciferase reporter average, stronger effect = higher value
[2] = rescue of PC12 cells from polyQ htt toxicity – LDH release (AID 1610); settings: PC12 mutant huntingtin toxicity, final LDH at 4 uM, stronger effect = lower value

SMILES | signal change (36 h minus 0 h) (PubChem AID 1586) | SMN1 luciferase ratio [1] | SMN2 luciferase ratio [1] | normalised LDH release [2]
CC(=O)Nc1cc([As](=O)(O)O)ccc1O | 0.123 | 1.04 | 0.88 | 0.96
O=[N+]([O-])c1cc(O)c(O)c([N+](=O)[O-])c1 | 0.151 | 0.9 | 1.02 | 0.773
N#C/C(=C\c1cccc(O)c1)C(=O)O | 0.107 | 0.81 | 0.98 | 0.838
CNC(C)(C)Cc1ccccc1 | 0.133 | 0.86 | 0.87 | 0.586
NCC(CC(=O)O)c1ccc(Cl)cc1 (centres undefined) | 0.15 | 0.96 | 0.86 | 0.603
CC(C)(C)NCC(O)c1cc(Cl)c(N)c(Cl)c1 (centres undefined) | 0.0924 | 0.9 | 0.84 | 0.842
CC[C@@]1(O)C(=O)OCc2c1cc1n(c2=O)Cc2cc3ccccc3nc2-1 | 0.0958 | – | – | 0.931
O=C1CC[C@@]2(O)[C@H]3Cc4ccc(O)c5c4C2(CCN3CC2CC2)[C@H]1O5 | 0.116 | 0.87 | 1.01 | 0.609
CC[C@H]1CN2CCC1C[C@@H]2[C@@H](O)c1ccnc2ccc(OC)cc12 (some centres undefined) | 0.0711 | 0.88 | 0.9 | 0.987
C=CCC1(CC(C)C)C(=O)NC(=O)NC1=O | 0.185 | 0.91 | 0.91 | 0.709
CC[C@@]1(O)C[C@H](O[C@H]2C[C@H](N(C)C)[C@H](O)[C@H](C)O2)c2c(cc3c(c2O)C(=O)c2c(O)cccc2C3=O)[C@H]1C(=O)OC | 0.104 | 0.05 | 0.08 | 0.823
COc1ccc(Cc2nccc3cc(OC)c(OC)cc23)cc1OC | 0.186 | 0.82 | 0.52 | 0.84
CO[C@H]1[C@H](O)[C@H](O[C@H]2CC[C@]3(C)C4CC[C@]5(C)C(C6=CC(=O)OC6)CC[C@]5(O)C4CC[C@@H]3C2)O[C@@H](C)[C@@H]1O (some centres undefined) | 0.078 | 0.04 | 0.08 | 0.834
NC(N)=NOCC[C@H](N)C(=O)O | 0.135 | 0.9 | 0.85 | 0.997
COC(=O)C1C(OC(=O)c2ccccc2)CC2CCC1N2C (centres undefined) | 0.322 | 0.89 | 0.83 | 0.799
CC(C)(O)[C@@H]1[C@H]2OC(=O)[C@@H]1[C@]1(O)C[C@H]3O[C@]34C(=O)O[C@H]2[C@]14C | 0.0839 | 0.86 | 0.92 | 1.15
CCC(C)C(=O)O[C@H]1[C@H](O)C2C(CN3CC(C)CCC3[C@@]2(C)O)C2C[C@]34O[C@]5(O)C(OC(=O)C(C)(O)C(C)O)CC[C@@]3(C)C5C(OC(C)=O)[C@@H](OC(C)=O)C4[C@@]21O (some centres undefined) | 0.135 | 0.96 | 0.85 | 1.15
COc1ccc2c3c([nH]c2c1)C(C)=NCC3 | 0.0301 | 1 | 0.9 | 0.933
N#C/C(=C\c1ccc(O)cc1)C(=O)O | 0.183 | 0.98 | 1.01 | 1.51
c1ccc(N=Nc2ccccc2)cc1 | 0.0923 | 0.9 | 0.9 | 1.19
COc1ccc2c(c1OC)C(=O)O[C@H]2[C@H]1c2cc3c(cc2CCN1C)OCO3 | 0.167 | 0.87 | 0.88 | 0.875
CC1[C@H](C)OC(=O)CC(O)CC(O)CC(O)CCC(O)C(O)C[C@]2(O)CC(O)C(C(=O)O)C(CC(OC3O[C@H](C)[C@@H](O)[C@H](N)[C@@H]3O)/C=C/C=C/C=C/C=C/CC/C=C/C=C/[C@H](C)[C@H]1O)O2 (some centres undefined) | -0.331 | 0.95 | 1.04 | 1.04
Clc1ccc(COC(Cn2ccnc2)c2ccc(Cl)cc2Cl)cc1 (centres undefined) | -0.0352 | 0.84 | 0.87 | 1.12
C=C1C2CC[C@H]3[C@]4(C)C[C@H](OC5OC(CO)C(OS(=O)(=O)O)C(OS(=O)(=O)O)C5OC(=O)CC(C)C)C[C@@H](C(=O)O)[C@H]4CC[C@]3(C2)[C@H]1O (some centres undefined) | 0.065 | 0.85 | 0.8 | 0.815

Whole records, quoted from the list:
COc1ccc(Cc2nccc3cc(OC)c(OC)cc23)cc1OC in the list: signal change (36 h minus 0 h) (PubChem AID 1586): 0.186; SMN1 luciferase ratio [1]: 0.82; SMN2 luciferase ratio [1]: 0.52; normalised LDH release [2]: 0.84
COc1ccc2c3c([nH]c2c1)C(C)=NCC3 in the list: signal change (36 h minus 0 h) (PubChem AID 1586): 0.0301; SMN1 luciferase ratio [1]: 1; SMN2 luciferase ratio [1]: 0.9; normalised LDH release [2]: 0.933

Reference: PubChem BioAssay
